# Assay results as given in PubChem BioAssay AID504444 (National Center for Advancing Translational Sciences (NCATS), 2011).
# Screen size: about 360,000 compounds; about 7,500 (2.1%) were called active. The shares of active, inactive and inconclusive entries below differ from those in the screen. Calls come from the whole dose curve; as a rule, active = well fitted inhibition curve with a large enough effect; inconclusive = small, poorly fitted or top-dose-only effect, or effect the other way; inactive = flat fitted curve, though single readings scatter. Where the call is inconclusive, the potency comes from a doubtful curve fit.
# Assay: Nrf2 qHTS screen for inhibitors; note: nearly all actives have a fitted effect of over 60% in size
# Conditions: A549 ARE-Fluc reporter, luciferase luminescence, 18-24 h; series mostly up to 46 µM
# Method in brief: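 A549 ARE_Fluc cells (5000/well, 5% FBS OPTI-MEM) pre-incubated 2 h, then treated with compounds 18-24 h at 37C/5% CO2 in concentration-response. CellTiter-Fluor viability read first; BugLite luciferase luminescence after 15 min at room temperature gives Nrf2 activity.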
# Potency is the fitted concentration of half-maximal effect.
row,SMILES,Potency
1,O=C(Nc1nnc(Cc2ccccc2)s1)C1CCN(C(=O)c2cccs2)CC1,"inconclusive: 23.1 µM [falling, partial curve, poor fit]"
2,CCc1ccc(S(=O)(=O)NCCc2csc(-c3ccccc3)n2)s1,"inconclusive: 20.6 µM [falling, single point]"
3,OC1CCN(c2c3c(nc4cc(-c5ccc(F)cc5)nn24)CCC3)CC1,"inconclusive: 32.6 µM [falling, single point]"
4,O=C(CCl)c1ccc2[nH]c(=O)oc2c1,"inconclusive: 20.6 µM [falling, partial curve, poor fit]"
5,COc1ccc(NC(=O)c2ccc(NC3CC(=O)N(c4ccc(C)cc4C)C3=O)cc2)cc1 (centres undefined),"inconclusive: 7.31 µM [falling, partial curve]"
6,COc1cccc(CN(C)C(=O)c2cc(COc3ccc(-n4cncn4)cc3)on2)c1,"inconclusive: 23.1 µM [falling, single point]"
7,CC[C@]1(C(=O)OC)[C@H]2C(=O)N(Cc3ccccc3)C(=O)[C@H]2[C@H]2CN=C(SCc3ccc(C#N)cc3)N21,inactive
8,O=[N+]([O-])c1nn(-c2ccc3c(c2)OCCO3)n(O)c1=NCc1ccc(F)cc1,"inconclusive: 5.8 µM [activator, full curve]"
9,COCCn1c(SCC(=O)c2ccccc2)nc2cc(C(=O)NC3CCCC3)ccc2c1=O,"inconclusive: 25.9 µM [activator, partial curve]"
10,O=C(c1ccco1)N1CCN(C(=O)C2CC(c3ccc(Cl)cc3)=NO2)CC1 (centres undefined),"inconclusive: 9.2 µM [falling, partial curve, poor fit]"
11,C[C@H](CO)N1C[C@H](C)[C@@H](CN(C)Cc2ccc(-c3ccccc3)cc2)Oc2c(NC(=O)Nc3ccc4c(c3)OCO4)cccc2C1=O,"inconclusive: 29.1 µM [falling, single point]"
12,COc1ccc(N2CCN(C(=O)c3cccc(S(=O)(=O)N4CCCc5ccccc54)c3)CC2)cc1,"inconclusive: 29.1 µM [falling, single point]"
13,CC(C)c1ccc(S(=O)(=O)Nc2ccc(O)c(Sc3nc4ccccc4s3)c2)cc1,inactive
14,Cc1cccc(N(C(=O)c2csnn2)C(C(=O)NCc2ccccc2)c2ccncc2)c1 (centres undefined),"inconclusive: 13 µM [activator, single point]"
15,Fc1ccccc1-n1cn[nH]c1=S,"inconclusive: 3.66 µM [activator, full curve, poor fit]"
16,CC(=NCCCn1ccnc1)C1=C(O)c2ccccc2C1=O,"inconclusive: 23.1 µM [activator, partial curve, poor fit]"
17,N=C1C(c2nc3ccccc3[nH]2)=C(O)CN1C1CCCCC1,"inconclusive: 4.61 µM [activator, full curve]"
18,O=C(c1ccc(Cn2c(=S)[nH]c3ccc(N4CCOCC4)cc3c2=O)cc1)N1CCC(N2CCCCC2)CC1,"inconclusive: 20.6 µM [activator, single point]"
19,Cc1cc(NC(=O)CSc2nc(-c3ccc(Cl)cc3)cs2)no1,inactive
20,Cc1ccccc1NC(=O)c1cccc(N2C(=O)C3CCC(C)CC3C2=O)c1 (centres undefined),"inconclusive: 29.1 µM [activator, single point]"
21,Cc1cccc(CS(=O)(=O)c2ncc(Cl)c(C(=O)NCc3ccc4c(c3)OCO4)n2)c1,inactive
22,CN(C)c1ccc(C2CNC(c3ccc(Cl)c([N+](=O)[O-])c3)c3[nH]c4ccccc4c32)cc1 (centres undefined),inactive

row,SMILES,Potency
1,C=CCNC(=O)C1CCN(S(=O)(=O)c2ccc(Br)cc2)CC1,"inconclusive: 29.1 µM [falling, single point]"
2,COc1cccc(NC(=O)c2cc(-c3cccnc3)nc3c(Cl)cccc23)c1,inactive
3,Cn1c2c(c3cnc4cc(Cl)ccc4c31)CNCC2,inactive
4,COc1ccccc1C(=O)Nc1nc2ccccc2[nH]1,"inconclusive: 2.91 µM [falling, full curve, poor fit]"
5,O=S(=O)(NCC1CC1)c1cc(Cl)cc(Cl)c1,"inconclusive: 0.058 µM [falling, partial curve, poor fit]"
6,CC(C)(O)c1cc2ccc(C#CCCN3C(=O)c4ccccc4C3=O)cc2c(=O)o1,"inconclusive: 2.06 µM [falling, partial curve, poor fit]"
7,O=C(CSc1nnc(-c2cccs2)o1)Oc1ccc(Cl)cc1,"inconclusive: 25.9 µM [activator, single point]"
8,Cc1ccc(S(=O)(=O)N2CCN(C(=O)COC(=O)COc3ccccc3C(C)C)CC2)c(C)c1,inactive
9,CCOc1ccc(OCc2ccc(C(=O)Nc3cccnc3)cc2)cc1,"inconclusive: 32.6 µM [falling, single point]"
10,CCCCNC(=O)C1CCCN(c2nnc(C)c3c(C)n(-c4ccc(Cl)cc4)nc23)C1 (centres undefined),"inconclusive: 0.146 µM [falling, partial curve, poor fit]"
11,CN(Cc1ccccc1)C(=O)C1CCC(CNS(=O)(=O)c2cccc3cccnc23)CC1 (centres undefined),active: 16.4 µM
12,COc1cccc2sc3cc(NCC[C@@H]4CCCN4C)ccc3c(=O)c12,"inconclusive: 5.17 µM [activator, partial curve, poor fit]"
13,Cc1ccc(Nc2ncnc3sc(C)c(C)c23)cc1,"inconclusive: 29.1 µM [activator, single point]"
14,CC(C)(C)c1ccc(Cn2nnc3c(=O)[nH]c(C4CCCN(C(=O)c5ccco5)C4)nc32)cc1 (centres undefined),"inconclusive: 20.6 µM [falling, single point]"
15,Cc1cccc(C)c1OCc1cc(C(=O)N2CCN(C3CCCC3)CC2)no1,"inconclusive: 7.31 µM [activator, partial curve, poor fit]"
16,CCn1c(=O)n(CC)c2cc(N3CCCC3)c(NC(=O)c3c(F)cccc3F)cc21,"inconclusive: 25.9 µM [falling, partial curve, poor fit]"
17,Cc1ccc(S(=O)(=O)N2CCC(=O)N(C(COCc3ccc(C(F)(F)F)cc3)C(C)C)CC2)cc1 (centres undefined),"inconclusive: 29.1 µM [falling, single point]"
18,COc1ccc(-c2nc3cc([N+](=O)[O-])ccc3o2)cc1,"inconclusive: 3.26 µM [activator, full curve]"
19,COc1ccc(C2=NN(C(=O)CSc3nnc(-c4ccccc4F)o3)C(c3ccco3)C2)cc1 (centres undefined),"inconclusive: 32.6 µM [falling, single point]"
20,CC1CN(c2ncnc3c2c(-c2ccccc2)cn3-c2ccc(F)cc2)CC(C)O1 (centres undefined),active: 18.4 µM
21,O=C(NC1CC(=O)c2sccc21)c1ccc(Cl)cc1Cl (centres undefined),"inconclusive: 23.1 µM [activator, partial curve]"
22,CCc1nnc(SCc2nc(-c3ccccc3F)oc2C)c2cc3sccc3n12,inactive

# Ordered by SMILES length (smallest number first): four of the compounds above.
row,SMILES,Potency
13,Cc1ccc(Nc2ncnc3sc(C)c(C)c23)cc1,"inconclusive: 29.1 µM [activator, single point]"
7,O=C(CSc1nnc(-c2cccs2)o1)Oc1ccc(Cl)cc1,"inconclusive: 25.9 µM [activator, single point]"
16,CCn1c(=O)n(CC)c2cc(N3CCCC3)c(NC(=O)c3c(F)cccc3F)cc21,"inconclusive: 25.9 µM [falling, partial curve, poor fit]"
19,COc1ccc(C2=NN(C(=O)CSc3nnc(-c4ccccc4F)o3)C(c3ccco3)C2)cc1 (centres undefined),"inconclusive: 32.6 µM [falling, single point]"

# Next part

row,SMILES,Potency
1,O=c1cccc2n1Cc1cc3ccccc3nc1-2,"inconclusive: 1.3 µM [activator, full curve]"
2,O=C(N/N=C/c1cccc(O)c1)c1ccc(NC(=O)c2cccc([N+](=O)[O-])c2)cc1,"inconclusive: 9.2 µM [falling, partial curve]"
3,COc1cccc(C2CC(=O)Nc3cc4c(cc32)CCC4)c1 (centres undefined),"inconclusive: 23.1 µM [falling, single point]"
4,CCOc1ccc(NC(=O)CSc2nccn(-c3ccc4c(c3)OCCO4)c2=O)cc1,inactive
5,Cc1ccc(NC(=O)c2cccc(OCc3c(C)noc3C)c2)cc1S(=O)(=O)Nc1ccccc1Cl,"inconclusive: 20.6 µM [falling, single point]"
6,O=C(CN1CCCCC1)Nc1cccc(Oc2ccccc2)c1,inactive
7,COCCNc1cc(N2CCN(C3CCCCC3)CC2)c2noc3c2c1C(=O)c1ccccc1-3,inactive
8,Fc1ccc(Nc2nc(-c3cccnc3)cs2)cc1,"inconclusive: 2.91 µM [activator, full curve]"
9,O=C(Oc1ccc(N(C(=O)c2ccncc2)S(=O)(=O)c2cccs2)cc1)c1ccncc1,inactive
10,CC(C)CCn1nc(C(=O)Nc2nc3c(s2)CCCC3)c2ccccc2c1=O,"inconclusive: 14.6 µM [falling, partial curve, poor fit]"
11,C[C@H](NC(=O)OC(C)(C)C)c1nnc(SCC(=O)Nc2ccc(Br)cc2)o1,"inconclusive: 0.461 µM [falling, full curve, poor fit]"
12,CC(C)Sc1nc2ccc(N3C(=O)C4CCCCC4C3=O)cc2s1 (centres undefined),"inconclusive: 0.58 µM [activator, full curve, poor fit]"
13,COc1ccc(/C=N/NC(=O)c2ccc(=O)n(C)c2)cc1OC,"inconclusive: 7.31 µM [activator, partial curve]"
14,Cc1ccc2nsnc2c1NC(=O)Cc1ccc(Cl)cc1,inactive
15,COCCn1c(SCC(=O)Nc2ccc(Cl)c(S(=O)(=O)N(C)C)c2)nc2ccccc21,"inconclusive: 5.17 µM [falling, single point]"
16,CCC(=O)NCCc1nc2cc(NC(=O)COc3ccccc3)ccc2n1C,"inconclusive: 23.1 µM [activator, partial curve, poor fit]"
17,N/C(=N/OC(=O)c1cccc([N+](=O)[O-])c1)c1cccc([N+](=O)[O-])c1,"inconclusive: 10.3 µM [activator, partial curve, poor fit]"
18,CCc1nnc2c(N(C)C)nc3ccccc3n12,"inconclusive: 29.1 µM [falling, single point]"
19,Cc1nc2scc(C)n2c(=O)c1S(=O)(=O)N1CCN(c2ccccc2F)CC1,inactive
20,Cc1ccc(NS(=O)(=O)c2ccc(C(=O)N3CCOCC3)cc2)cc1,"inconclusive: 18.4 µM [falling, partial curve]"
